Reference: PubChem BioAssay AID540256 (National Center for Advancing Translational Sciences (NCATS), 2011)
Out of some 300,000 compounds screened, about 3,700 (1.2%) were called active. The inconclusive results got no clear call from the source; some entries with a clear call stand among them for comparison. Calls follow the shape of the full dose curve; tested in HEK293 cells. Where the call is inconclusive, the potency comes from a doubtful curve fit.

test: qHTS for Inhibitors of binding or entry into cells for Lassa Virus; conditions: Lassa virus pseudotype entry inhibition, cell reporter; activity change, negative = inhibition: at 37.9 µM (top of the series) unless noted; also: nearly all actives have a fitted effect of over 50% in size
% is scaled to controls: 0 for no effect and ±100 for the full control effect; potency is read from the fitted curve at half-maximal effect.

Compound | activity change, negative = inhibition | Potency
Cc1ccc(NC(=O)C2CCCN(S(=O)(=O)c3ccc4c(c3)CCCC(=O)N4)C2)cc1N(C)C (stereo not given) | inactive: -22.4% [at 46.1 µM] | 
O=C(Cn1c(-c2cccs2)cc2cc(Cl)ccc21)N1CCCCC1 | inactive: -9.24% [at 46.1 µM] | 
Cc1ccc2c([N+](=O)[O-])cccc2n1 |  | inconclusive: 14.6 µM [activator, partial curve, poor fit]
Cc1ccc(C)c(NC(=O)Cn2c(=O)n(CCCS(=O)(=O)C3CCCCC3)c(=O)c3ccccc32)c1 | inactive: 10.4% [at 46.1 µM] | 
Cc1ccc(-c2noc(N=O)c2NO)cc1 |  | inconclusive: 17.8 µM [inhibitor, partial curve, poor fit]
O=C1N/C(=C/c2ccc(Br)s2)C(=O)N1c1ccccc1 |  | inconclusive: 35.5 µM [inhibitor, single point]
CCC(Oc1ccccc1)C(=O)N1CC(C)CC(C)C1 (stereo not given) | inactive: 5.39% | 
COc1ccc(Cl)cc1C(=O)NCC(c1ccc(N(C)C)cc1)N1CCCC1 (stereo not given) | inactive: -5.18% [at 46.1 µM] | 
O=S(=O)(c1ccccc1Cl)N1CCCC1c1nc(-c2ccc(Cl)cc2)no1 (stereo not given) |  | inconclusive: 14.6 µM [inhibitor, partial curve, poor fit]
O=C(Nc1cccc(-c2nc3ccccc3o2)c1)c1cccnc1 | inactive: 18.2% [at 46.1 µM] | 
CCc1ccc(CNC(=O)C2CCN(C(=O)c3ccc(-n4c(C)cc5ccccc54)s3)CC2)cc1 |  | inconclusive: 7.94 µM [inhibitor, partial curve, poor fit]
CCN(CCCNC(=O)COc1cc(=O)n(C)c2ccccc12)c1ccccc1 |  | inconclusive: 18.3 µM [inhibitor, single point]
CCCCCCc1cc2cc(-c3nnc(-c4ccccc4OC)o3)c(=O)oc2cc1O |  | inconclusive: 22.4 µM [inhibitor, single point]
CN(C(=O)CSc1nc2ccc(NC(=O)c3cccs3)cc2s1)c1ccccc1 |  | inconclusive: 35.5 µM [inhibitor, partial curve, poor fit]
Cc1cc(NC(=O)CSc2nnnn2-c2ccccc2C)no1 | inactive: 1.01% | 
Clc1ccc(CN2CCN(c3ncnc4scc(-c5cccs5)c34)CC2)cc1 |  | inconclusive: 29.1 µM [inhibitor, single point]
C/C(=N\NC(=O)C(C)n1nc(C)c([N+](=O)[O-])c1C)c1ccccc1O (stereo not given) |  | active: 13 µM
CCOc1cc2c3c(c1)C1(Nc4ccccc4S1)C(=O)N3C(C)(C)CC2C (stereo not given) | inactive: -29.6% | 
O=C1CN(C(=O)c2c(F)cccc2Cl)C(c2ccc(F)cc2)c2cc(Br)ccc2N1 (stereo not given) |  | inconclusive: 4.47 µM [inhibitor, single point]
C/C(=N\NS(=O)(=O)c1ccc(Cl)c([N+](=O)[O-])c1)c1ccc(C)o1 | inactive: -2.74% | 
CCn1nc(C)cc1C(=O)NC1CCCc2c1cnn2-c1cc(F)cc(F)c1 (stereo not given) |  | inconclusive: 11.2 µM [inhibitor, partial curve]
COc1ccc(-c2coc3cc(OC(=O)N4CCOCC4)ccc3c2=O)cc1 |  | inconclusive: 2.82 µM [activator, partial curve, poor fit]

Compound | activity change, negative = inhibition | Potency
COc1ccc(C2=NC(C(F)(F)F)(C(F)(F)F)c3c(n(C)c(=O)n(C)c3=O)N2)cc1 |  | inconclusive: 29.1 µM [inhibitor, single point]
CCn1c(C)csc1=NC(=O)c1ccccc1 |  | inconclusive: 4.11 µM [activator, single point]
CC(=O)NC(c1ccc(C)cc1)c1cc(Cl)c2cccnc2c1O (stereo not given) |  | inconclusive: 7.94 µM [inhibitor, partial curve, poor fit]
CC(C)CCNC(=O)Cn1cc(S(=O)(=O)Cc2ccc(F)cc2)c2ccccc21 | inactive: -3.4% [at 46.1 µM] | 
O=C(NCCN1CCN(c2ccccc2F)CC1)c1cccn2c(=O)c3ccccc3nc12 |  | inconclusive: 29.1 µM [inhibitor, single point]
Cc1ccc(NC(=O)c2cccc(S(=O)(=O)N3CCN(c4ccc(F)cc4)CC3)c2)nc1 |  | inconclusive: 22.4 µM [inhibitor, single point]
Cc1ccc(/C=C/C(=O)Nc2cc(C)on2)cc1 |  | inconclusive: 3.98 µM [activator, partial curve, poor fit]
CCc1ccc[n+](-c2[nH]c(=O)sc2/C=N/N=C(\N)[O-])c1 | inactive: -1.2% [at 46.1 µM] | 
Cc1ccc(NC(=O)C(=O)NCC(c2ccc3c(c2)OCO3)N2CCN(C)CC2)cc1C (stereo not given) |  | inconclusive: 35.5 µM [activator, single point]
Cc1c(C(=O)Oc2ccc(Br)cc2)sc2ncn(Cc3ccccc3F)c(=O)c12 |  | inconclusive: 12.6 µM [activator, single point]
COc1ccc(-c2cc(C(=O)NCc3ccc(C)cc3)c3cc(C(C)C)ccc3n2)cc1 |  | inconclusive: 35.5 µM [activator, single point]
CN(Cc1ccco1)C(=O)CN1C(=O)NC(c2ccccc2)(c2ccccc2)C1=O | inactive: -3.42% | 
CCOc1ccccc1-c1ccc(C(=O)NCc2ccc(Cl)cc2)o1 |  | inconclusive: 0.996 µM [inhibitor, full curve, poor fit]
Cc1ccc(S(=O)(=O)N(CC(O)CN(C)C)c2ccccc2)cc1 (stereo not given) | inactive: -1.66% | 
Cc1ccc(C=NNC(=O)c2cc(-c3cccnc3)nc3ccccc23)o1 |  | inconclusive: 3.55 µM [inhibitor, full curve]
Cc1ccc(C)c(NS(=O)(=O)c2cc(C(=O)NCCC3=CCCCC3)ccc2C)c1 |  | inconclusive: 1.83 µM [inhibitor, single point]
COc1cccc(N2CCN(C(=O)C3CCC(=O)N(C4CCCCCC4)C3)CC2)c1 (stereo not given) |  | inconclusive: 10 µM [inhibitor, partial curve]
COc1cccc(NC(=O)Nc2cccc(C)n2)c1 |  | inconclusive: 0.631 µM [activator, partial curve, poor fit]
O=C1N(c2ccccc2)C[C@@H]2C[C@@H](c3cc4ccccc4o3)N3CCC[C@@]123 |  | inconclusive: 0.562 µM [inhibitor, full curve, poor fit]
CCc1ccc2nc(N3CCC(C(=O)NCCC(C)C)CC3)sc2c1 |  | inconclusive: 3.55 µM [activator, single point]
COc1cc(-c2cc(-c3ccc(O)cc3)nc(N)c2C#N)ccc1O |  | inconclusive: 2.24 µM [inhibitor, partial curve, poor fit]
Nc1ncnc2c1c(I)cn2[C@@H]1C[C@H](N)[C@@H](O)[C@H]1O |  | inconclusive: 18.3 µM [activator, partial curve, poor fit]

Record cards, as listed above:
`COc1cc(-c2cc(-c3ccc(O)cc3)nc(N)c2C#N)ccc1O` reads Potency: inconclusive: 2.24 µM [inhibitor, partial curve, poor fit]
`COc1cccc(N2CCN(C(=O)C3CCC(=O)N(C4CCCCCC4)C3)CC2)c1` (stereo not given) reads Potency: inconclusive: 10 µM [inhibitor, partial curve]
`Nc1ncnc2c1c(I)cn2[C@@H]1C[C@H](N)[C@@H](O)[C@H]1O` reads Potency: inconclusive: 18.3 µM [activator, partial curve, poor fit]
`CCn1c(C)csc1=NC(=O)c1ccccc1` reads Potency: inconclusive: 4.11 µM [activator, single point]

Carrying on.

Compound | activity change, negative = inhibition | Potency
COc1ccc(/C=N/NC(=O)C(=O)Nc2ccccn2)cc1OC | inactive: 18.1% | 
CCc1cccc(CC)c1NC(=O)/C(C#N)=C/c1ccccc1C(F)(F)F |  | inconclusive: 25.1 µM [inhibitor, single point]
CCCC(=O)N1CCN(c2ccc(NC(=O)c3ccc([N+](=O)[O-])o3)cc2Cl)CC1 |  | inconclusive: 31.6 µM [inhibitor, single point]
Cc1nnc(SCC(=O)Nc2ccc3c(c2)OCO3)o1 | inactive: -4.31% | 
CCN(c1ccccc1)S(=O)(=O)c1cc(C(=O)Nc2ccccc2Cl)ccc1F |  | inconclusive: 6.31 µM [inhibitor, single point]
CCCC(=O)OC1=C(C(C)=O)N(Cc2ccccc2)S(=O)(=O)c2ccccc21 | inactive: -2.4% [at 46.1 µM] | 
CCc1ccc(N(C(=O)c2snc(C(N)=O)c2N)C(C(=O)NC2CCCC2)c2ccco2)cc1 (stereo not given) |  | inconclusive: 14.1 µM [inhibitor, partial curve, poor fit]
Cc1oc(-c2ccc(F)cc2F)nc1CN1C[C@@H]2C[C@@H](C1)c1cccc(=O)n1C2 |  | inconclusive: 35.5 µM [inhibitor, partial curve, poor fit]
Cc1nc2ccc(NC(=O)c3ccc([N+](=O)[O-])cc3[N+](=O)[O-])cc2s1 |  | inconclusive: 35.5 µM [activator, single point]
CN(CC(=O)Nc1ccc(F)cc1[N+](=O)[O-])Cc1ccccc1 | inactive: -27.2% | 
CCOC(=O)Cn1c(S(=O)(=O)Cc2ccccc2Cl)nc(-c2ccccc2)c1-c1ccccc1 |  | active: 11.6 µM
CS(=O)(=O)c1ccc2nc(NC(=O)c3cccc(NS(=O)(=O)c4ccc(F)c(F)c4)c3)sc2c1 |  | inconclusive: 35.5 µM [inhibitor, single point]
CCOC(=O)c1c(C)n(-c2ccc(C)cc2)c2ccc(O)c(CN(C)C)c12 |  | inconclusive: 35.5 µM [inhibitor, single point]
O=C(O)C1CCN(S(=O)(=O)c2ccc(N3CCOCC3)c([N+](=O)[O-])c2)CC1 | inactive: 1.01% [at 46.1 µM] | 
COC(=O)CCCCCN1C(=O)NC(c2ccccc2)C(C(=O)OCc2ccccc2)=C1C (stereo not given) |  | inconclusive: 7.31 µM [inhibitor, partial curve, poor fit]
O=C(C1CCCCC1)N1CCN(C(=O)C2CCCCC2)CC1 |  | inconclusive: 5.17 µM [activator, single point]
COc1ccc(CCNC(=O)c2ccc3nc(-c4ccco4)c(-c4ccco4)nc3c2)cc1OC |  | active: 8.2 µM
O=S(=O)(/N=C/c1ccccc1O)c1cccs1 | inactive: 13.5% | 
COc1ccc(OC)c(N2C(=O)C(Cl)=C(N3CCCCC3)C2=O)c1 |  | inconclusive: 16.4 µM [inhibitor, partial curve, poor fit]
Cc1cc(N2CCN(C)CC2)nc2ccc(NC(=O)Nc3ccc(F)cc3)cc12 |  | inconclusive: 2 µM [activator, partial curve, poor fit]
C/C(=N\NC(=O)C(=O)Nc1c(C)n(C)n(-c2ccccc2)c1=O)c1ccncc1 |  | inconclusive: 31.6 µM [activator, single point]
